The list does not hold the whole screen: its compounds were picked by chemical class. Not every dose and run of a compound is shown. T/C is the treated group as % of the vehicle group. Some T/C values are marked as having no survivor count here; that says nothing about deaths at the dose. Schedules are NCI's codes, read here as Q, the interval in days (D) or hours (H), X, the number of doses.
Tested on: BDF1 mice, colon carcinoma 38 sc, T/C %
Assay: NCI In Vivo Anticancer Drug Screen. Data for tumor model Colon Carcinoma 38 (subcutaneous) in B6D2F1 (BDF1) mice
Details: T/C endpoint: median tumor weight (est.), schedule: Q07DX003 (ip), vehicle: saline, evaluation day not shown, higher T/C = larger tumour
Description: The antitumor activity of compounds was measured in mice bearing transplantable tumors. Survival or tumor size were measured and the results are expressed as the measurement made in the treated group (T) divided by the measurement made in the vehicle treated control group (C). The tumor model used in this assay is Colon Carcinoma 38 (subcutaneous) in B6D2F1 (BDF1) mice

`CN(CCCl)CCCl` was tested, and the T/C (dose: 0.06 mg/kg/injection) was 70 % of control [survivor count not shown], the T/C (dose: 0.12 mg/kg/injection) was 112 % of control [survivor count not shown] and the T/C (dose: 0.25 mg/kg/injection) was 123 % of control [survivor count not shown]. For the same compound, the T/C (dose: 0.5 mg/kg/injection) was 88 % of control [survivor count not shown], the T/C (dose: 1.0 mg/kg/injection) was 70 % of control [survivor count not shown] and the T/C (dose: 2.0 mg/kg/injection) was 59 % of control [survivor count not shown].

Reference: PubChem BioAssay AID212 (DTP/NCI, 2004)
